The list does not hold the whole screen: it gathers some chemical classes. Not every dose and run of a compound is shown. T/C is the treated group as % of the vehicle group. Some entries give survivors of the animals treated and no T/C: the source files T/C as zero there, which appears to mark a toxic dose or a test without result, not a measured value. For some assays here: Counts of survivors are from the toxicity check (mostly the fifth day) where no day follows; animals may have died later. Schedule codes are those of the source, taken here to give the interval after Q, in days (D) or hours (H), and the number of doses after X. Some schedule codes hold Z or #, which are not explained here. For survival time, the PubChem record calls one and a half times the control and up active, and a quarter to a half above the control has no call in these data; cut-offs in other NCI protocols can differ. Some T/C values are followed by the survivors on the day toxicity was checked, most often the fifth; where neither a count nor a note follows, no animal had died by that day. Some entries hold several experiments; their values stand side by side, smallest first.
Key:
[1] = system: BDF1 mice, L1210 leukemia sc, survival T/C; assay: NCI In Vivo Anticancer Drug Screen. Data for tumor model L1210 Leukemia (subcutaneous) in B6D2F1 (BDF1) mice; settings: T/C endpoint: median survival time, higher T/C = longer survival
Description: (§1) The antitumor activity of compounds was measured in mice bearing transplantable tumors. Survival or tumor size were measured and the results are expressed as the measurement made in the treated group (T) divided by the measurement made in the vehicle treated control group (C). The tumor model used in this assay is L1210 Leukemia (subcutaneous) in B6D2F1 (BDF1) mice

[2] = system: BDF1 mice, L1210 leukemia sc; assay: as above; settings: T/C endpoint: median survival time, higher T/C = longer survival
Description: as §1

[3] = dose: 14.0 mg/kg/injection, schedule: Q01DX Z (sc), vehicle: saline
[4] = dose: 23.0 mg/kg/injection, schedule: Q01DX Z (sc), vehicle: saline
[5] = dose: 108.0 mg/kg/injection, schedule: Q01DX Z (sc), vehicle: saline

O=P1(N(CCCl)CCCl)OCCCN1CCCl (stereo unspecified)
T/C ([1]; dose: 7.8 mg/kg/injection, schedule: Q03HX008 (ip), vehicle: water): 122 % of control | T/C ([1]; dose: 7.8 mg/kg/injection, schedule: Q03HX008 (sc), vehicle: water): 111 % of control | T/C ([1]; dose: 15.62 mg/kg/injection, schedule: Q03HX008 (ip), vehicle: water): 155 % of control | T/C ([1]; dose: 15.62 mg/kg/injection, schedule: Q03HX008 (sc), vehicle: water): 155 % of control | T/C ([1]; dose: 23.0 mg/kg/injection, schedule: Q03HX008 (sc), vehicle: water): 200 % of control | T/C ([1]; dose: 31.25 mg/kg/injection, schedule: Q03HX008 (ip), vehicle: water): 611 % of control | T/C ([1]; dose: 31.25 mg/kg/injection, schedule: Q03HX008 (sc), vehicle: water): 544 % of control | T/C ([1]; dose: 39.0 mg/kg/injection, schedule: Q01DX009 (sc), vehicle: water): 184 % of control | T/C ([1]; dose: 39.0 mg/kg/injection, schedule: Q03HX008 (sc), vehicle: water): 231 % of control | T/C ([1]; dose: 62.5 mg/kg/injection, schedule: Q03HX008 (ip), vehicle: water): 611 % of control | T/C ([1]; dose: 62.5 mg/kg/injection, schedule: Q03HX008 (sc), vehicle: water): 611 % of control | T/C ([1]; dose: 65.0 mg/kg/injection, schedule: Q01DX009 (sc), vehicle: water): 200 % of control | T/C ([1]; dose: 65.0 mg/kg/injection, schedule: Q03HX008 (sc), vehicle: water): 310 % of control | T/C ([1]; dose: 65.0 mg/kg/injection, schedule: Q04DX003 (sc), vehicle: water): 121 % of control | T/C ([1]; dose: 108.0 mg/kg/injection, schedule: Q01DX009 (sc), vehicle: water): 273 % of control | T/C ([1]; dose: 108.0 mg/kg/injection, schedule: Q08DX002 (sc), vehicle: water): 210 % of control | T/C ([1]; dose: 125.0 mg/kg/injection, schedule: Q01DX001 (ip), vehicle: water): 211 % of control | T/C ([1]; dose: 125.0 mg/kg/injection, schedule: Q01DX001 (sc), vehicle: water): 166 % of control | T/C ([1]; dose: 180.0 mg/kg/injection, schedule: Q01DX001 (sc), vehicle: water): 189 % of control | T/C ([1]; dose: 180.0 mg/kg/injection, schedule: Q01DX009 (sc), vehicle: water): 163 % of control | survivor count ([1]; dose: 180.0 mg/kg/injection, schedule: Q03HX008 (sc), vehicle: water): 4 of 8 | T/C ([1]; dose: 180.0 mg/kg/injection, schedule: Q08DX002 (sc), vehicle: water): 121 % of control | T/C ([1]; dose: 250.0 mg/kg/injection, schedule: Q01DX001 (ip), vehicle: water): 605 % of control | T/C ([1]; dose: 250.0 mg/kg/injection, schedule: Q01DX001 (sc), vehicle: water): 205 % of control | T/C ([1]; dose: 300.0 mg/kg/injection, schedule: Q01DX001 (sc), vehicle: water): 215 % of control | T/C ([1]; dose: 300.0 mg/kg/injection, schedule: Q01DX009 (sc), vehicle: water): 121 % of control | T/C ([1]; dose: 300.0 mg/kg/injection, schedule: Q04DX003 (sc), vehicle: water): 431 % of control | survivor count ([1]; dose: 500.0 mg/kg/injection, schedule: Q01DX001 (ip), vehicle: water): 0 of 8 | T/C ([1]; dose: 500.0 mg/kg/injection, schedule: Q01DX001 (sc), vehicle: water, evaluated on day 40): 105 % of control | T/C ([1]; dose: 500.0 mg/kg/injection, schedule: Q01DX001 (sc), vehicle: water, evaluated on day 55): 611 % of control | T/C ([1]; dose: 500.0 mg/kg/injection, schedule: Q04DX003 (sc), vehicle: water): 105 % of control | T/C ([1]; dose: 500.0 mg/kg/injection, schedule: Q08DX002 (sc), vehicle: water): 105 % of control [6 of 8 alive] | survivor count ([1]; dose: 833.0 mg/kg/injection, schedule: Q01DX001 (sc), vehicle: water): 3 of 8 | survivor count ([1]; dose: 833.0 mg/kg/injection, schedule: Q08DX002 (sc), vehicle: water): 3 of 8 | survivor count ([1]; dose: 1000.0 mg/kg/injection, schedule: Q01DX001 (ip), vehicle: water): 0 of 8 | T/C ([1]; dose: 1000.0 mg/kg/injection, schedule: Q01DX001 (sc), vehicle: water): 611 % of control | survivor count ([1]; dose: 1388.0 mg/kg/injection, schedule: Q01DX001 (sc), vehicle: water): 0 of 8 | T/C ([2]; dose: 23.0 mg/kg/injection, schedule: Q01DX009 (sc), vehicle: water): 142 % of control | T/C ([2]; dose: 39.0 mg/kg/injection, schedule: Q04DX003 (sc), vehicle: water): 136 % of control | T/C ([2]; dose: 65.0 mg/kg/injection, schedule: Q08DX002 (sc), vehicle: water): 147 % of control | T/C ([2]; dose: 108.0 mg/kg/injection, schedule: Q03HX008 (sc), vehicle: water): 147 % of control | T/C ([2]; dose: 108.0 mg/kg/injection, schedule: Q04DX003 (sc), vehicle: water): 142 % of control | T/C ([2]; dose: 180.0 mg/kg/injection, schedule: Q04DX003 (sc), vehicle: water): 126 % of control | T/C ([2]; dose: 300.0 mg/kg/injection, schedule: Q08DX002 (sc), vehicle: water): 126 % of control

O[C@H](CNCCCl)[C@H](O)CNCCCl
survivor count ([1]; dose: 1.8 mg/kg/injection, schedule: Q01DX Z (sc), vehicle: saline): 6 of 10 | T/C ([1]; dose: 3.0 mg/kg/injection, schedule: Q01DX Z (sc), vehicle: saline): 100 % of control [9 of 10 alive] | T/C ([1]; dose: 5.0 mg/kg/injection, schedule: Q01DX Z (sc), vehicle: saline): 100 % of control [9 of 10 alive] | T/C ([1]; dose: 8.4 mg/kg/injection, schedule: Q01DX Z (sc), vehicle: saline): 105 and 110 % of control [9 of 10 alive] | T/C [1, 3]: 110 and 168 % of control | T/C [1, 4]: 157 [9 of 10 alive] and 187 % of control | T/C ([1]; dose: 39.0 mg/kg/injection, schedule: Q01DX Z (sc), vehicle: saline): 150, 162, 168 % of control [9 of 10 alive] | T/C [1, 5]: 120 and 150 % of control | T/C [2, 3]: 126 % of control [8 of 10 alive] | T/C [2, 4]: 140 % of control | T/C ([2]; dose: 65.0 mg/kg/injection, schedule: Q01DX Z (sc), vehicle: saline): 130, 136, 143 % of control | T/C [2, 5]: 131 % of control
